This note sets out measurements from publication doi:10.1101/2021.09.15.460553.

Sequences of proteins named here, by UniProt entry; tags and fusion partners are left off.
UniProt Q96LD4: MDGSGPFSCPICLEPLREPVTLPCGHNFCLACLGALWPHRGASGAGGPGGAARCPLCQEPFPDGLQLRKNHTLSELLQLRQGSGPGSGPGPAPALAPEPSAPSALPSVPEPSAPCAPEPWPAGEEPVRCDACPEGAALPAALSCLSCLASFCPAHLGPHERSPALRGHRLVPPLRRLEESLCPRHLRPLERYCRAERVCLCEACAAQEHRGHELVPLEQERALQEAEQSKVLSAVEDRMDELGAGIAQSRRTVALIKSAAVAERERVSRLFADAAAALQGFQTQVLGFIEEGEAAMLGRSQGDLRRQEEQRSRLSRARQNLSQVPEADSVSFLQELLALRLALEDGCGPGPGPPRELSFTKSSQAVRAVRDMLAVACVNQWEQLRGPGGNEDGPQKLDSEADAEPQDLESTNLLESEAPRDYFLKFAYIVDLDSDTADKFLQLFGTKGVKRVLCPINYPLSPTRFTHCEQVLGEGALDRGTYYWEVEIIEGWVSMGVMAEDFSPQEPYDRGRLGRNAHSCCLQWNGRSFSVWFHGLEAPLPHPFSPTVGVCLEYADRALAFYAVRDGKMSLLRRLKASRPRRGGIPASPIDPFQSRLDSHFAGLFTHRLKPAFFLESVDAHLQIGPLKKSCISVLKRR
UniProt Q9Y6K9: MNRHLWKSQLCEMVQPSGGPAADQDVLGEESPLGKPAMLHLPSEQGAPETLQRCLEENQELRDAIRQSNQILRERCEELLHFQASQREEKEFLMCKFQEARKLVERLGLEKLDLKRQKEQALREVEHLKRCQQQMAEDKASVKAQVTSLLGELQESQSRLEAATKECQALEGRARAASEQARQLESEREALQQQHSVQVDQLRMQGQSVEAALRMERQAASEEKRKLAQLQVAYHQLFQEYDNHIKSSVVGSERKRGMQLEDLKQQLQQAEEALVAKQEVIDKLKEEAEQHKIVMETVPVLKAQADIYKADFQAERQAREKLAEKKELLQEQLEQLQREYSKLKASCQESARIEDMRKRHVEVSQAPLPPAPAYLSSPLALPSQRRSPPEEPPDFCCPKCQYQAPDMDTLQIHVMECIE
UniProt P25963: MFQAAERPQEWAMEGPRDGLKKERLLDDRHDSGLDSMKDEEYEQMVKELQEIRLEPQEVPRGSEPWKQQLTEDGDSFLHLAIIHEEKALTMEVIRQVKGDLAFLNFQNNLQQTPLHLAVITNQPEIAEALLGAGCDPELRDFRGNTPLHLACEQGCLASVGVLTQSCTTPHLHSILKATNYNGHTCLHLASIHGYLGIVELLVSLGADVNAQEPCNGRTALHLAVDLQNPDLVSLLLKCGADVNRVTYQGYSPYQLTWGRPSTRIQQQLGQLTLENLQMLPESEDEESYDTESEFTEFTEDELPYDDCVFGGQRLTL

No constants are given. Whether binding was seen depends on the method and setting. In cells and extracts the contact can be indirect.

The labels stand for the following.
B1: TAK1 (protein, UniProt O43318 1-606)
chain: MSTASAASSSSSSSAGEMIEAPSQVLNFEEIDYKEIEVEEVVGRGAFGVVCKAKWRAKDVAIKQIESESERKAFIVELRQLSRVNHPNIVKLYGACLNPVCLVMEYAEGGSLYNVLHGAEPLPYYTAAHAMSWCLQCSQGVAYLHSMQPKALIHRDLKPPNLLLVAGGTVLKICDFGTACDIQTHMTNNKGSAAWMAPEVFEGSNYSEKCDVFSWGIILWEVITRRKPFDEIGGPAFRIMWAVHNGTRPPLIKNLPKPIESLMTRCWSKDPSQRPSMEEIVKIMTHLMRYFPGADEPLQYPCQYSDEGQSNSATSTGSFMDIASTNTSNKSDTNMEQVPATNDTIKRLESKLLKNQAKQQSESGRLSLGASRGSSVESLPPTSEGKRMSADMSEIEARIAATTAYSKPKRGHRKTASFGNILDVPEIVISGNGQPRRRSIQDLTVTGTEPGQVSSRSSSPSVRMITTSGPTSEKPTRSHPWTPDDSTDTNGSDNSIPMAYLTLDHQLQPLAPCPNSKESMAVFEQHCKMAQEYMKVQTEIALLLQRKQELVAELDQDEKDQQNTSRLVQEHKKLLDENKSLSTYYQQCKKQLEVIRSQQQKRQGTS

The target of the experiment is Flag-tagged TRIM47 (human) (UniProt Q96LD4). In words: co-IP.
With IKKγ (from UniProt Q9Y6K9 1-419), the binding result is “no binding”.
As to IκBα (from UniProt P25963 1-317), the binding result is “no binding”.
As for B1, the binding entry is recorded as “no binding”.
